At least one structure is not confirmed: it was looked up by name or label, or the drawing left a doubt.
Assay: in vitro dye evaluation on chicken breast with an ultraviolet lamp
Details: attributed to fluorescent and hydrophilic properties

With `O=C1OC2(c3ccc(O)cc3Oc3cc(O)ccc32)c2ccccc21` [fluorescein] the diffusion through tissues was “can diffuse through tissues easily”.

Reference: patent publication US10441760B2, “Self-actuating chemomechanical devices for delivery and extended release of therapeutic agents in the gastrointestinal tract” (THE JOHNS HOPKINS UNIVERSITY, priority 2013, dated 2019)
